In publication PMC10470606:
These are yes or no findings as the source states them, for the method shown. For some assays here: In cells and extracts the contact can be indirect. Some results given as binding are weak or reduced against the parent protein; the word gives no strength.

Amino acid sequences for entries named in this document (tags omitted).
UniProt P21926: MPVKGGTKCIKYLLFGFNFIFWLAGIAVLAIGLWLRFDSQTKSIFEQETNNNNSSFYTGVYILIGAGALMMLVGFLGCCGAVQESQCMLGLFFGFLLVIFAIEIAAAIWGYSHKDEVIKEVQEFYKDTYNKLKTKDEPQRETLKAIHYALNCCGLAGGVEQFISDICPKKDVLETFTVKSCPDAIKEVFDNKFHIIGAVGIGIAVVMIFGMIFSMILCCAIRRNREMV

Experiments:
[1] = target: tetraspanin CD9 (human (endogenous in A549; the cells lysed for the co-IP are not named)) (UniProt P21926); experiment: fluorescence microscopy of labelled peptide on cells; 200 nM 6-carboxyfluorescein (FAM) tagged peptide on WT or CD9-/- A549 cells on coverslips, 30 min at 37°C, fixed with 2% PFA; corrected total cell fluorescence; scrambled peptide as control; only the binder purified
[2] = target: tetraspanin CD9 (human (endogenous in A549; the cells lysed for the co-IP are not named)) (UniProt P21926); experiment: co-IP; anti-CD9 antibody (MM2/57, 4 µg) on Protein-G magnetic beads; whole cell lysates in RIPA buffer, 60 min at 4°C; washed in PBS-Triton X-100 (0.2%); blots probed with anti-CD9 or anti-SDC-1; anti-FLAG immunoprecipitation as control

binding [1]	binding [2]	Binder
binds		DEPQRETLKAIHYALN (6-carboxyfluorescein moiety at the N-terminus) [CD9 EC2-derived peptide 800C, fluorescently labeled]
	binds	syndecan-1 (protein, UniProt P18827 23-310) QIVATNLPPEDQDGSGDDSDNFSGSGAGALQDITLSQQTPSTWKDTQLLTAIPTSPEPTGLEATAASTSTLPAGEGPKEGEAVVLPEVEPGLTAREQEATPRPRETTQLPTTHLASTTTATTAQEPATSHPHRDMQPGHHETSTPAGPSQADLHTPHTEDGGPSATERAAEDGASSQLPAAEGSGEQDFTFETSGENTAVVAVEPDRRNQSPVDQGATGASQGLLDRKEVLGGVIAGGLVGLIFAVCLVGFMLYRMKKKDEGSYSLEEPKQANGGAYQKPTKQEEFYA
